Some of these results come from one statement about several compounds together.
Experiments:
Format in all cases: in vivo
Tetranychus urticae = Tetranychus urticae bean leaf disc spray test; conditions: application rate 200 ppm, sprayed bean leaf discs, mite populations of mixed ages, 8 days; egg, larval and adult mortality
Source text: Tetranychus Urticae (Two-Spotted Spider Mite):
Bean leaf discs on agar in 24-well microtiter plates were sprayed with test solutions at an application rate of 200 ppm. After drying, the leaf discs are infested with mite populations of mixed ages. 8 days later, discs are checked for egg mortality, larval mortality, and adult mortality.

Heliothis virescens = Heliothis virescens egg / artificial diet test; conditions: application rate 200 ppm (concentration in well 18 ppm), eggs 0-24 h old on artificial diet, 4 days; egg mortality, larval mortality, growth regulation
Description: Heliothis Virescens (Tobacco Budworm):
Eggs (0-24 h old) were placed in 24-well microtiter plate on artificial diet and treated with test solutions at an application rate of 200 ppm (concentration in well 18 ppm) by pipetting. After an incubation period of 4 days, samples were checked for egg mortality, larval mortality, and growth regulation.

Thrips tabaci = Thrips tabaci sunflower leaf disc spray test; conditions: application rate 200 ppm, sprayed sunflower leaf discs, population of mixed ages, 7 days; mortality
Description: Thrips Tabaci (Onion Thrips):
Sunflower leaf discs were placed on agar in a 24-well microtiter plate and sprayed with test solutions at an application rate of 200 ppm. […] After an incubation period of 7 days, samples were checked for mortality.

Spodoptera littoralis = Spodoptera littoralis cotton leaf disc spray test; conditions: application rate 200 ppm, sprayed cotton leaf discs, L1 larvae, 3 days after treatment; mortality, feeding behavior, growth regulation
Source text: Spodoptera Littoralis (Egyptian Cotton Leafworm):
Cotton leaf discs were placed on agar in a 24-well microtiter plate and sprayed with test solutions at an application rate of 200 ppm. After drying, the leaf discs were infested with 5 L1 larvae. The samples were checked for mortality, feeding behavior, and growth regulation 3 days after treatment (DAT).

Diabrotica balteata = Diabrotica balteata artificial diet test; conditions: application rate 200 ppm (concentration in well 18 ppm), L2 larvae, 5 days, larval mortality, growth regulation
Description: Diabrotica Balteata (Corn Root Worm):
(§1) A 24-well microtiter plate (MTP) with artificial diet was treated with test solutions at an application rate of 200 ppm (concentration in well 18 ppm) by pipetting. After drying, the MTP's were infested with L2 larvae (6-10 per well). After an incubation period of 5 days, samples were checked for larval mortality and growth regulation.

Plutella xylostella = Plutella xylostella artificial diet test; conditions: application rate 200 ppm (concentration in well 18 ppm), L2 larvae, 6 days, larval mortality, growth regulation
Description: Plutella Xylostella (Diamond Back Moth):
as §1, with “24-well” for “A 24-well”, “(7-12” for “(6-10”, “6” for “5”

Cc1cc(C2=NOC(c3cc(Cl)cc(Cl)c3)(C(F)(F)F)C2Cl)ccc1C(=O)NCc1ccc(Cl)nc1 (stereo not drawn) [B13]
at least 80%: control of Tetranychus urticae (Tetranychus urticae) | control of Heliothis virescens (Heliothis virescens) | control of Thrips tabaci (Thrips tabaci) | control of Spodoptera littoralis (Spodoptera littoralis) | control of Diabrotica balteata (Diabrotica balteata) | control of Plutella xylostella (Plutella xylostella)

Cc1cc(C2=NOC(c3cc(Cl)cc(Cl)c3)(C(F)(F)F)C2Cl)ccc1C(=O)NC1(C)CSC1 (stereo not drawn) [B18]
at least 80%: control of Tetranychus urticae (Tetranychus urticae) | control of Heliothis virescens (Heliothis virescens) | control of Thrips tabaci (Thrips tabaci) | control of Spodoptera littoralis (Spodoptera littoralis) | control of Diabrotica balteata (Diabrotica balteata) | control of Plutella xylostella (Plutella xylostella)

CSCC(C)(C)NC(=O)c1ccc(C2=NOC(c3cc(Cl)cc(Cl)c3)(C(F)(F)F)C2Cl)cc1C (stereo not drawn) [B19]
at least 80%: control of Tetranychus urticae (Tetranychus urticae) | control of Heliothis virescens (Heliothis virescens) | control of Thrips tabaci (Thrips tabaci) | control of Spodoptera littoralis (Spodoptera littoralis) | control of Diabrotica balteata (Diabrotica balteata) | control of Plutella xylostella (Plutella xylostella)

Cc1cc(C2=NOC(c3cc(Cl)cc(Cl)c3)(C(F)(F)F)C2Cl)ccc1C(=O)NC1C[S+]([O-])C1 (stereo not drawn) [B20]
at least 80%: control of Tetranychus urticae (Tetranychus urticae) | control of Heliothis virescens (Heliothis virescens) | control of Thrips tabaci (Thrips tabaci) | control of Spodoptera littoralis (Spodoptera littoralis) | control of Diabrotica balteata (Diabrotica balteata) | control of Plutella xylostella (Plutella xylostella)

Cc1cc(C2=NOC(c3cc(Cl)cc(Cl)c3)(C(F)(F)F)C2Cl)ccc1C(=O)NC1CC2CCC1C2 (stereo not drawn) [B22]
at least 80%: control of Tetranychus urticae (Tetranychus urticae) | control of Heliothis virescens (Heliothis virescens) | control of Thrips tabaci (Thrips tabaci) | control of Spodoptera littoralis (Spodoptera littoralis) | control of Diabrotica balteata (Diabrotica balteata) | control of Plutella xylostella (Plutella xylostella)

COCC(C)NC(=O)c1ccc(C2=NOC(c3cc(Cl)cc(Cl)c3)(C(F)(F)F)C2Br)c2ccccc12 (stereo not drawn) [F4]
at least 80%: control of Tetranychus urticae (Tetranychus urticae) | control of Heliothis virescens (Heliothis virescens) | control of Thrips tabaci (Thrips tabaci) | control of Spodoptera littoralis (Spodoptera littoralis) | control of Diabrotica balteata (Diabrotica balteata) | control of Plutella xylostella (Plutella xylostella)

O=C(NCC1CCCO1)c1ccc(C2=NOC(c3cc(Cl)cc(Cl)c3)(C(F)(F)F)C2Br)c2ccccc12 (stereo not drawn) [F7]
at least 80%: control of Tetranychus urticae (Tetranychus urticae) | control of Heliothis virescens (Heliothis virescens) | control of Thrips tabaci (Thrips tabaci) | control of Spodoptera littoralis (Spodoptera littoralis) | control of Diabrotica balteata (Diabrotica balteata) | control of Plutella xylostella (Plutella xylostella)

CC(NC(=O)c1ccc(C2=NOC(c3cc(Cl)cc(Cl)c3)(C(F)(F)F)C2Br)c2ccccc12)c1ccccc1 (stereo not drawn) [F10]
at least 80%: control of Tetranychus urticae (Tetranychus urticae) | control of Heliothis virescens (Heliothis virescens) | control of Thrips tabaci (Thrips tabaci) | control of Spodoptera littoralis (Spodoptera littoralis) | control of Diabrotica balteata (Diabrotica balteata) | control of Plutella xylostella (Plutella xylostella)

COc1ccc(CNC(=O)c2ccc(C3=NOC(c4cc(Cl)cc(Cl)c4)(C(F)(F)F)C3Br)c3ccccc23)cc1 (stereo not drawn) [F11]
at least 80%: control of Tetranychus urticae (Tetranychus urticae) | control of Heliothis virescens (Heliothis virescens) | control of Thrips tabaci (Thrips tabaci) | control of Spodoptera littoralis (Spodoptera littoralis) | control of Diabrotica balteata (Diabrotica balteata) | control of Plutella xylostella (Plutella xylostella)

O=C(NC1CS(=O)(=O)C1)c1ccc(C2=NOC(c3cc(Cl)cc(Cl)c3)(C(F)(F)F)C2Br)c2ccccc12 (stereo not drawn) [F12]
at least 80%: control of Tetranychus urticae (Tetranychus urticae) | control of Heliothis virescens (Heliothis virescens) | control of Thrips tabaci (Thrips tabaci) | control of Spodoptera littoralis (Spodoptera littoralis) | control of Diabrotica balteata (Diabrotica balteata) | control of Plutella xylostella (Plutella xylostella)

CC1(NC(=O)c2ccc(C3=NOC(c4cc(Cl)cc(Cl)c4)(C(F)(F)F)C3Br)c3ccccc23)CSC1 (stereo not drawn) [F18]
at least 80%: control of Tetranychus urticae (Tetranychus urticae) | control of Heliothis virescens (Heliothis virescens) | control of Thrips tabaci (Thrips tabaci) | control of Spodoptera littoralis (Spodoptera littoralis) | control of Diabrotica balteata (Diabrotica balteata) | control of Plutella xylostella (Plutella xylostella)

CSCC(C)(C)NC(=O)c1ccc(C2=NOC(c3cc(Cl)cc(Cl)c3)(C(F)(F)F)C2Br)c2ccccc12 (stereo not drawn) [F19]
at least 80%: control of Tetranychus urticae (Tetranychus urticae) | control of Heliothis virescens (Heliothis virescens) | control of Thrips tabaci (Thrips tabaci) | control of Spodoptera littoralis (Spodoptera littoralis) | control of Diabrotica balteata (Diabrotica balteata) | control of Plutella xylostella (Plutella xylostella)

O=C(NC1C[S+]([O-])C1)c1ccc(C2=NOC(c3cc(Cl)cc(Cl)c3)(C(F)(F)F)C2Br)c2ccccc12 (stereo not drawn) [F20]
at least 80%: control of Tetranychus urticae (Tetranychus urticae) | control of Heliothis virescens (Heliothis virescens) | control of Thrips tabaci (Thrips tabaci) | control of Spodoptera littoralis (Spodoptera littoralis) | control of Diabrotica balteata (Diabrotica balteata) | control of Plutella xylostella (Plutella xylostella)

Cc1cc(C2=NOC(c3cc(Cl)cc(Cl)c3)(C(F)(F)F)C2F)ccc1C(=O)NC1CS(=O)(=O)C1 (stereo not drawn) [G1]
at least 80%: control of Tetranychus urticae (Tetranychus urticae) | control of Heliothis virescens (Heliothis virescens) | control of Thrips tabaci (Thrips tabaci) | control of Spodoptera littoralis (Spodoptera littoralis) | control of Diabrotica balteata (Diabrotica balteata) | control of Plutella xylostella (Plutella xylostella)

Cc1cc(C2=NOC(c3cc(Cl)cc(Cl)c3)(C(F)(F)F)C2F)ccc1C(=O)NC1(C)CSC1 (stereo not drawn) [G2]
at least 80%: control of Tetranychus urticae (Tetranychus urticae) | control of Heliothis virescens (Heliothis virescens) | control of Thrips tabaci (Thrips tabaci) | control of Spodoptera littoralis (Spodoptera littoralis) | control of Diabrotica balteata (Diabrotica balteata) | control of Plutella xylostella (Plutella xylostella)

Cc1cc(C2=NOC(c3cc(Cl)cc(Cl)c3)(C(F)(F)F)C2F)ccc1C(=O)NC1CSC1 (stereo not drawn) [G3]
at least 80%: control of Tetranychus urticae (Tetranychus urticae) | control of Heliothis virescens (Heliothis virescens) | control of Thrips tabaci (Thrips tabaci) | control of Spodoptera littoralis (Spodoptera littoralis) | control of Diabrotica balteata (Diabrotica balteata) | control of Plutella xylostella (Plutella xylostella)

Cc1cc(C2=NOC(c3cc(Cl)cc(Cl)c3)(C(F)(F)F)C2F)ccc1C(=O)NC1C[S+]([O-])C1 (stereo not drawn) [G4]
at least 80%: control of Tetranychus urticae (Tetranychus urticae) | control of Heliothis virescens (Heliothis virescens) | control of Thrips tabaci (Thrips tabaci) | control of Spodoptera littoralis (Spodoptera littoralis) | control of Diabrotica balteata (Diabrotica balteata) | control of Plutella xylostella (Plutella xylostella)

Reference: US8822502B2, “Insecticidal compounds” (Syngenta Crop Protection LLC, priority 2008, dated 2014)
